# Reference: PubChem BioAssay AID1487 (National Center for Advancing Translational Sciences (NCATS), 2009)
# Several values for one entry are separate records, joined by “and”; a condition that tells them apart may be missing. Equal values may be shown once. The list shows a part of the results. Further columns of the screen follow, without active or inactive calls. Most of these compounds were active or inconclusive in the main read-out, so they are no random draw. The note in brackets gives the kind of curve behind each potency; many fits are weak.
# Test: qHTS Assay for Modulators of Lamin A Splicing
# Settings: HeLa LMNA splicing GFP/RFP minigene ratio, 48 h
# In short: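 S3 HeLa stable clones carrying a lamin A-EGFP splicing minigene plus DsRed2 were seeded at 600 cells/well in Opti-MEM with 2% FBS, pin-dosed and incubated 48 h at 37°C. Acumen cytometry (488 nm) gave the GFP/RFP total-intensity ratio.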
# [1] = measured here: RFP viability control channel
# [2] = measured here: GFP splicing reporter channel
SMILES,AC50 [1],AC50 [2]
CCN1CCN(c2cc(N3CCCC3)c([N+](=O)[O-])cc2F)CC1,"31.6 µM [rising, single point]",–
O=C(NC1CN2CCC1CC2)c1cc(Cl)c([N+](=O)[O-])c2nc[nH]c12 (stereo unspecified),"31.6 µM [rising, single point]","17.8 µM [rising, single point]"
CCCCCn1c(=O)c(C(=O)Nc2ccncc2)c(O)c2ccccc21,"2.51 µM [rising, full curve]",–
O=C(CSC1c2ccccc2-c2ccccc21)N/N=C/c1ccccc1O,"14.1 µM [rising, partial curve]",–
CN1C2CCC1CC(OC(c1ccccc1)c1ccccc1N)C2 (stereo unspecified),"6.31 µM [falling, partial curve, poor fit]",–
Cc1ccc(Oc2cnn(-c3ccccc3)c(=O)c2Br)cc1,"12.6 µM [rising, single point]","31.6 µM [rising, single point]"
CC/C(=C\C=C\[C@@H]1C=C[C@@H]2CCC[C@H]2[C@@H]1C(=O)c1ccc[nH]1)[C@@H]1O[C@@H]([C@@H](C)C(=O)O)CC[C@@H]1C,"2.82 µM [rising, full curve]","3.98 µM [rising, partial curve]"
O=Cc1cn(Cc2cccc(F)c2)c2ccccc12,"15.8 µM [rising, single point]","10 µM [rising, single point]"
COCCCn1c(N)c(C(=O)Nc2sc3c(c2C(=O)OC)CCCC3)c2nc3ccccc3nc21,"14.1 µM [falling, single point]",–
N#Cc1c(Cl)nc(Cl)c2c1CCN(Cc1ccccc1)C2,–,"1.58 µM [rising, partial curve, poor fit]"
c1csc(-c2nnc(Cc3cccc4ccccc34)o2)c1,"35.5 µM [rising, single point]","25.1 µM [rising, single point]"
COC(=O)c1ccccc1NC(=O)c1cccn(Cc2cccc(Cl)c2)c1=O,"35.5 µM [rising, single point]","0.0398 µM [falling, full curve, poor fit]"
CC1CC(C)CN(CC(=O)c2ccc(OC(F)F)cc2)C1 (stereo unspecified),–,"0.708 µM [falling, full curve, poor fit]"
OCCN1CCN(CCCN2c3ccccc3Sc3ccc(C(F)(F)F)cc32)CC1,–,"3.98 µM [falling, partial curve, poor fit] and 6.31 µM [falling, partial curve] and 15.8 µM [falling, partial curve]"
Cc1ccccc1-n1c(O)c(/C=C2/C(c3ccccc3)=Nc3ccccc32)c(=O)[nH]c1=O,"5.01 µM [rising, partial curve]",–
Clc1ccc2c(c1)C(c1ccccc1Cl)=NCc1nnc(N3CCN(CCSc4ccccc4)CC3)n1-2,"35.5 µM [falling, single point]","35.5 µM [falling, single point]"
C=CCN1C(=O)NC(=O)C(CCc2ccncc2)(CCc2ccncc2)C1=O,"0.00355 µM [falling, full curve, poor fit]","0.794 µM [falling, full curve, poor fit]"
C=C1[C@@H](C)[C@H]2[C@H](Cc3ccccc3)NC(=O)[C@]23OC(=O)/C=C/[C@H](O)CCC[C@@H](C)C/C=C/[C@H]3[C@@H]1O,"0.631 µM [falling, full curve, poor fit]",–
O=C(O)C1C2CCC(O2)C1C(=O)O (stereo unspecified),"35.5 µM [falling, single point]","0.0891 µM [falling, full curve, poor fit]"
COC(=O)COc1cc(Cl)c(Cl)cc1Cl,"20 µM [falling, partial curve]","11.2 µM [falling, partial curve, poor fit]"
CCOC(=O)c1c(NC(NC(=O)CF)C(Cl)(Cl)Cl)sc2c1CCCC2 (stereo unspecified),"35.5 µM [rising, single point]","35.5 µM [rising, single point]"
C=CCn1c(O)c(/C=C2/C=CC=N2)c(=O)[nH]c1=O,"22.4 µM [rising, single point]",–
O=C(Oc1ccc2cc(Br)ccc2c1)N1CCCCCC1,"35.5 µM [rising, single point]","20 µM [rising, partial curve]"
CC1(C)CSC(Nc2ccc(F)c(Cl)c2)=N1,"22.4 µM [rising, single point]","5.01 µM [rising, partial curve]"
Cc1c(Cl)c(=O)oc2cc(OP(=O)(OCCCl)OCCCl)ccc12,"35.5 µM [rising, single point]","0.01 µM [falling, full curve, poor fit]"

# 3 structures from above, ordered by SMILES length, smallest number first:
SMILES,AC50 [1],AC50 [2]
COC(=O)COc1cc(Cl)c(Cl)cc1Cl,"20 µM [falling, partial curve]","11.2 µM [falling, partial curve, poor fit]"
CC1(C)CSC(Nc2ccc(F)c(Cl)c2)=N1,"22.4 µM [rising, single point]","5.01 µM [rising, partial curve]"
COCCCn1c(N)c(C(=O)Nc2sc3c(c2C(=O)OC)CCCC3)c2nc3ccccc3nc21,"14.1 µM [falling, single point]",–

# Following part

SMILES,AC50 [1],AC50 [2]
Cc1cccc(C)c1NC(=O)CN(C)CC(=O)Nc1ccc(C#N)c(Cl)c1,"11.2 µM [rising, partial curve]","1.78 µM [rising, partial curve, poor fit]"
Cc1cc(C)cc(N2C(=O)NC(=O)/C(=C\C=C\c3ccco3)C2=O)c1,"15.8 µM [rising, partial curve]","12.6 µM [rising, single point]"
CCN1C(=O)c2ccccc2Sc2ccc(NC(=O)Nc3ccc(Br)c(C)c3)cc21,"5.62 µM [rising, partial curve]",–
COc1ccc(Oc2cc(NC(=O)c3nn(C)cc3[N+](=O)[O-])cc([N+](=O)[O-])c2)cc1,"15.8 µM [falling, single point]","14.1 µM [falling, partial curve]"
O=C1C(c2ccccc2)=C(N2CC2)c2ccccc21,"15.8 µM [rising, partial curve]","11.2 µM [rising, partial curve]"
Oc1ccc2c3c1O[C@H]1[C@@H](O)CC[C@]4(O)[C@H](C2)N(CC2CCC2)CC[C@@]314,"14.1 µM [falling, single point]","7.94 µM [falling, partial curve]"
CCCNS(=O)(=O)c1ccc(OCC(=O)N2CCN(Cc3ccc4c(c3)OCO4)CC2)cc1,"10 µM [rising, partial curve]","3.16 µM [rising, full curve]"
NC(N)=NN=Cc1c(Cl)cccc1Cl,"0.355 µM [falling, single point]","0.2 µM [falling, partial curve, poor fit]"
CC(C)CN(C(=O)CN1CC=C(c2ccccc2)CC1)c1c(N)n(CC(C)C)c(=O)[nH]c1=O,"0.0501 µM [falling, full curve]",–
O=C1CN=C(c2ccccc2)c2cc([N+](=O)[O-])ccc2N1,"3.55 µM [falling, single point]",–
Cc1ccc(S(=O)(=O)N[C@@H](CCCCN)C(=O)CCl)cc1,"0.0316 µM [rising, full curve]","25.1 µM [falling, single point]"
C[C@]12CCC(=O)C=C1CCc1ccc(O)cc12,"11.2 µM [rising, partial curve]","12.6 µM [rising, partial curve]"
Nc1ccc(N)cc1,–,"10 µM [rising, partial curve, poor fit]"
O=C(Nc1ccccc1)N(Cc1ccc2c(c1)OCO2)C1CCN(Cc2ccccc2)CC1,"0.0224 µM [rising, full curve, poor fit]",–
CCc1ccccc1N1C(=O)CC(=O)NC1=O,"6.31 µM [falling, single point]",–
Cc1cccc(C)c1NC1=NCCCS1,"35.5 µM [falling, single point] and 1.12 nM [falling, full curve, poor fit]","398 nM [falling, partial curve] and 0.794 nM [falling, full curve, poor fit]"
COc1ccc(CC2(CCc3ccncc3)C(=O)NC(=O)NC2=O)cc1,"2 µM [falling, full curve]","3.55 µM [falling, full curve]"
C[C@]12CC[C@@H]3c4ccc(O)cc4[C@@H](O)C[C@H]3[C@@H]1CC[C@@H]2O,"35.5 µM [rising, single point]",–
CCNC(=O)[C@H]1O[C@@H](n2cnc3c(N)ncnc32)[C@H](O)[C@@H]1O,–,"0.02 µM [rising, full curve, poor fit]"
COc1cccc(NP(=O)(Oc2ccc(Cl)cc2)Oc2ccc(Cl)cc2)c1,"10 µM [rising, partial curve, poor fit]",–
COc1ccc(N2C(=O)NC(=O)/C(=C/c3cccc(OC(=O)c4cccs4)c3)C2=O)cc1Cl,"5.62 µM [rising, single point]",–
C[C@@H]1O[C@@H](O[C@H]2C[C@@H](O)[C@]3(CO)[C@@H]4C(CC[C@]3(O)C2)[C@@]2(O)CC[C@H](C3=CC(=O)OC3)[C@@]2(C)C[C@H]4O)[C@H](O)[C@H](O)[C@H]1O (stereo partly specified),"0.224 µM [falling, full curve]","1 µM [falling, full curve]"
CC1CN(c2cc([N+](=O)[O-])ccc2Cl)CC(C)N1 (stereo unspecified),–,"0.00794 µM [rising, full curve, poor fit]"
CC(=O)[C@@]1(O)CC[C@H]2C3CCC4=CC(=O)CC[C@]4(C)C3CC[C@@]21C (stereo partly specified),"5.62 µM [falling, single point]","5.62 µM [falling, partial curve, poor fit]"
